Among the data in patent US20220089670A1 are binding values, retold here.

No constants are given. Whether binding was seen depends on the method and setting. In cells and extracts the contact can be indirect. Some binding calls cover weakened binding; strength is not graded here. Sequences can lack the tags named with a protein.

To fix the notation:
T1: WT BEST1-CFP-Myc (human) (UniProt O76090)
T1 sequence: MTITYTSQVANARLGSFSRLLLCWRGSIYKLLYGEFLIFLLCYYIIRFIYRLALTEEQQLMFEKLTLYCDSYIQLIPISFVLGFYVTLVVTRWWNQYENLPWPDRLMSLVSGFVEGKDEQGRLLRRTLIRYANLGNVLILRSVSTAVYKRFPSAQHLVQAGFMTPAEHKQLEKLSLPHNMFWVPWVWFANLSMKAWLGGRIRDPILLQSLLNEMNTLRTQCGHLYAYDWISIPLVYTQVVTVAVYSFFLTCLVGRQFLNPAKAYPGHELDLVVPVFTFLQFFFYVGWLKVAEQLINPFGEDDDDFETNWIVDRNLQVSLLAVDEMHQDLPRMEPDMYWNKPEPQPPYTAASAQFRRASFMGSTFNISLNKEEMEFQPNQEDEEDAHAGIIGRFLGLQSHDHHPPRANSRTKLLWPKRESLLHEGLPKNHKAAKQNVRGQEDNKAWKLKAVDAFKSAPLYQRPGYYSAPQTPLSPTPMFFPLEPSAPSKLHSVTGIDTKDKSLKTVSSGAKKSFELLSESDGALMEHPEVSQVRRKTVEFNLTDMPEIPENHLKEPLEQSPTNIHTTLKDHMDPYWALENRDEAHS

B1: BEST1 A10T-YFP-His (protein, not shown: large carriers; small tags and cut ends)
chain: MTITYTSQVTNARLGSFSRLLLCWRGSIYKLLYGEFLIFLLCYYIIRFIYRLALTEEQQLMFEKLTLYCDSYIQLIPISFVLGFYVTLVVTRWWNQYENLPWPDRLMSLVSGFVEGKDEQGRLLRRTLIRYANLGNVLILRSVSTAVYKRFPSAQHLVQAGFMTPAEHKQLEKLSLPHNMFWVPWVWFANLSMKAWLGGRIRDPILLQSLLNEMNTLRTQCGHLYAYDWISIPLVYTQVVTVAVYSFFLTCLVGRQFLNPAKAYPGHELDLVVPVFTFLQFFFYVGWLKVAEQLINPFGEDDDDFETNWIVDRNLQVSLLAVDEMHQDLPRMEPDMYWNKPEPQPPYTAASAQFRRASFMGSTFNISLNKEEMEFQPNQEDEEDAHAGIIGRFLGLQSHDHHPPRANSRTKLLWPKRESLLHEGLPKNHKAAKQNVRGQEDNKAWKLKAVDAFKSAPLYQRPGYYSAPQTPLSPTPMFFPLEPSAPSKLHSVTGIDTKDKSLKTVSSGAKKSFELLSESDGALMEHPEVSQVRRKTVEFNLTDMPEIPENHLKEPLEQSPTNIHTTLKDHMDPYWALENRDEAHS
B2: BEST1 R218H-YFP-His (protein, not shown: large carriers; small tags and cut ends)
chain: MTITYTSQVANARLGSFSRLLLCWRGSIYKLLYGEFLIFLLCYYIIRFIYRLALTEEQQLMFEKLTLYCDSYIQLIPISFVLGFYVTLVVTRWWNQYENLPWPDRLMSLVSGFVEGKDEQGRLLRRTLIRYANLGNVLILRSVSTAVYKRFPSAQHLVQAGFMTPAEHKQLEKLSLPHNMFWVPWVWFANLSMKAWLGGRIRDPILLQSLLNEMNTLHTQCGHLYAYDWISIPLVYTQVVTVAVYSFFLTCLVGRQFLNPAKAYPGHELDLVVPVFTFLQFFFYVGWLKVAEQLINPFGEDDDDFETNWIVDRNLQVSLLAVDEMHQDLPRMEPDMYWNKPEPQPPYTAASAQFRRASFMGSTFNISLNKEEMEFQPNQEDEEDAHAGIIGRFLGLQSHDHHPPRANSRTKLLWPKRESLLHEGLPKNHKAAKQNVRGQEDNKAWKLKAVDAFKSAPLYQRPGYYSAPQTPLSPTPMFFPLEPSAPSKLHSVTGIDTKDKSLKTVSSGAKKSFELLSESDGALMEHPEVSQVRRKTVEFNLTDMPEIPENHLKEPLEQSPTNIHTTLKDHMDPYWALENRDEAHS
B3: BEST1 Q293K-YFP-His (protein, not shown: large carriers; small tags and cut ends)
chain: MTITYTSQVANARLGSFSRLLLCWRGSIYKLLYGEFLIFLLCYYIIRFIYRLALTEEQQLMFEKLTLYCDSYIQLIPISFVLGFYVTLVVTRWWNQYENLPWPDRLMSLVSGFVEGKDEQGRLLRRTLIRYANLGNVLILRSVSTAVYKRFPSAQHLVQAGFMTPAEHKQLEKLSLPHNMFWVPWVWFANLSMKAWLGGRIRDPILLQSLLNEMNTLRTQCGHLYAYDWISIPLVYTQVVTVAVYSFFLTCLVGRQFLNPAKAYPGHELDLVVPVFTFLQFFFYVGWLKVAEKLINPFGEDDDDFETNWIVDRNLQVSLLAVDEMHQDLPRMEPDMYWNKPEPQPPYTAASAQFRRASFMGSTFNISLNKEEMEFQPNQEDEEDAHAGIIGRFLGLQSHDHHPPRANSRTKLLWPKRESLLHEGLPKNHKAAKQNVRGQEDNKAWKLKAVDAFKSAPLYQRPGYYSAPQTPLSPTPMFFPLEPSAPSKLHSVTGIDTKDKSLKTVSSGAKKSFELLSESDGALMEHPEVSQVRRKTVEFNLTDMPEIPENHLKEPLEQSPTNIHTTLKDHMDPYWALENRDEAHS
B4: BEST1 D302A-YFP-His (protein, not shown: large carriers; small tags and cut ends)
chain: MTITYTSQVANARLGSFSRLLLCWRGSIYKLLYGEFLIFLLCYYIIRFIYRLALTEEQQLMFEKLTLYCDSYIQLIPISFVLGFYVTLVVTRWWNQYENLPWPDRLMSLVSGFVEGKDEQGRLLRRTLIRYANLGNVLILRSVSTAVYKRFPSAQHLVQAGFMTPAEHKQLEKLSLPHNMFWVPWVWFANLSMKAWLGGRIRDPILLQSLLNEMNTLRTQCGHLYAYDWISIPLVYTQVVTVAVYSFFLTCLVGRQFLNPAKAYPGHELDLVVPVFTFLQFFFYVGWLKVAEQLINPFGEDADDFETNWIVDRNLQVSLLAVDEMHQDLPRMEPDMYWNKPEPQPPYTAASAQFRRASFMGSTFNISLNKEEMEFQPNQEDEEDAHAGIIGRFLGLQSHDHHPPRANSRTKLLWPKRESLLHEGLPKNHKAAKQNVRGQEDNKAWKLKAVDAFKSAPLYQRPGYYSAPQTPLSPTPMFFPLEPSAPSKLHSVTGIDTKDKSLKTVSSGAKKSFELLSESDGALMEHPEVSQVRRKTVEFNLTDMPEIPENHLKEPLEQSPTNIHTTLKDHMDPYWALENRDEAHS
B5: BEST1 L234P-YFP-His (protein, not shown: large carriers; small tags and cut ends)
chain: MTITYTSQVANARLGSFSRLLLCWRGSIYKLLYGEFLIFLLCYYIIRFIYRLALTEEQQLMFEKLTLYCDSYIQLIPISFVLGFYVTLVVTRWWNQYENLPWPDRLMSLVSGFVEGKDEQGRLLRRTLIRYANLGNVLILRSVSTAVYKRFPSAQHLVQAGFMTPAEHKQLEKLSLPHNMFWVPWVWFANLSMKAWLGGRIRDPILLQSLLNEMNTLRTQCGHLYAYDWISIPPVYTQVVTVAVYSFFLTCLVGRQFLNPAKAYPGHELDLVVPVFTFLQFFFYVGWLKVAEQLINPFGEDDDDFETNWIVDRNLQVSLLAVDEMHQDLPRMEPDMYWNKPEPQPPYTAASAQFRRASFMGSTFNISLNKEEMEFQPNQEDEEDAHAGIIGRFLGLQSHDHHPPRANSRTKLLWPKRESLLHEGLPKNHKAAKQNVRGQEDNKAWKLKAVDAFKSAPLYQRPGYYSAPQTPLSPTPMFFPLEPSAPSKLHSVTGIDTKDKSLKTVSSGAKKSFELLSESDGALMEHPEVSQVRRKTVEFNLTDMPEIPENHLKEPLEQSPTNIHTTLKDHMDPYWALENRDEAHS

The test has as its target T1, WT BEST1-CFP-Myc (human). The test is described as follows: co-immunoprecipitation (anti-Myc IP, anti-His immunoblot) from co-transfected HEK293 cells. In general terms: A western blot detects proteins with antibodies after separation by electrophoresis.
In the case of B1, the binding result is “binds”.

For the molecule B2, the binding entry was “binds”.

In the case of B3, the binding result is recorded as “binds”.

For the molecule B4, the binding entry is listed as “binds”.

As to B5, the binding entry was “binds”.
